Assay results as given in patent US20250388896A1, “COMPOSITION AND METHODS FOR TRANSGENE INSERTION” (ARTISAN DEVELOPMENT LABS, INC, priority 2022, published 2025).
Some results were stated once for a whole list of compounds, not compound by compound.

B1: JET: HDR template with JET promoter driving GFP, 500 bp homology arms, for AAVS1 (nucleic acid)
DNA: GAATTCGGGCGGAGTTAGGGCGGAGCCAATCAGCGTGCGCCGTTCCGAAAGTTGCCTTTTATGGCTGGGCGGAGAATGGGCGGTGAACGCCGATGATTATATAAGGACGCGCCGGGTGTGGCACAGCTAGTTCCGTCGCAGCCGGGATTTGGGTCGCGGTTCTTGTTTGTGGATCCCTGTGATCGTCACTTGACA
modifications: JET
notes: HDR template with JET promoter driving GFP, 500 bp homology arms, for AAVS1
B2: PGK: HDR template with PGK promoter driving GFP, 500 bp homology arms, for AAVS1 (nucleic acid)
DNA: GGGGTTGGGGTTGCGCCTTTTCCAAGGCAGCCCTGGGTTTGCGCAGGGACGCGGCTGCTCTGGGCGTGGTTCCGGGAAACGCAGCGGCGCCGACCCTGGGTCTCGCACATTCTTCACGTCCGTTCGCAGCGTCACCCGGATCTTCGCCGCTACCCTTGTGGGCCCCCCGGCGACGCTTCCTGCTCCGCCCCTAAGTCGGGAAGGTTCCTTGCGGTTCGCGGCGTGCCGGACGTGACAAACGGAAGCCGCACGTCTCACTAGTACCCTCGCAGACGGACAGCGCCAGGGAGCAATGGCAGCGCGCCGACCGCGATGGGCTGTGGCCAATAGCGGCTGCTCAGCAGGGCGCGCCGAGAGCAGCGGCCGGGAAGGGGCGGTGCGGGAGGCGGGGTGTGGGGCGGTAGTGTGGGCCCTGTTCCTGCCCGCGCGGTGTTCCGCATTCTGCAAGCCTCCGGAGCGCACGTCGGCAGTCGGCTCCCTCGTTGACCGAATCACCGACCTCTCTCCCCAG
modifications: PGK
notes: HDR template with PGK promoter driving GFP, 500 bp homology arms, for AAVS1
B3: EF1a: HDR template with EF1a promoter driving GFP, 500 bp homology arms, for AAVS1 (nucleic acid)
DNA: GAATTCAGGCTCCGGTGCCCGTCAGTGGGCAGAGCGCACATCGCCCACAGTCCCCGAGAAGTTGGGGGGAGGGGTCGGCAATTGAACCGGTGCCTAGAGAAGGTGGCGCGGGGTAAACTGGGAAAGTGATGTCGTGTACTGGCTCCGCCTTTTTCCCGAGGGTGGGGGAGAACCGTATATAAGTGCAGTAGTCGCCGTGAACGTTCTTTTTCGCAACGGGTTTGCCGCCAGAACACAGGTAAGTGCCGTGTGTGGTTCCCGCGGGCCTGGCCTCTTTACGGGTTATGGCCCTTGCGTGCCTTGAATTACTTCCACCTGGCTGCAGTACGTGATTCTTGATCCCGAGCTTCGGGTTGGAAGTGGGTGGGAGAGTTCGAGGCCTTGCGCTTAAGGAGCCCCTTCGCCTCGTGCTTGAGTTGAGGCCTGGCCTGGGCGCTGGGGCCGCCGCGTGCGAATCTGGTGGCACCTTCGCGCCTGTCTCGCTGCTTTCGATAAGTCTCTAGCCATTTAAAATTTTTGATGACCTGCTGCGACGCTTTTTTTCTGGCAAGATAGTCTTGTAAATGCGGGCCAAGATCTGCACACTGGTATTTCGGTTTTTGGGGCCGCGGGCGGCGACGGGGCCCGTGCGTCCCAGCGCACATGTTCGGCGAGGCGGGGCCTGCGAGCGCGGCCACCGAGAATCGGACGGGGGTAGTCTCAAGCTGGCCGGCCTGCTCTGGTGCCTGGTCTCGCGCCGCCGTGTATCGCCCCGCCCTGGGCGGCAAGGCTGGCCCGGTCGGCACCAGTTGCGTGAGCGGAAAGATGGCCGCTTCCCGGCCCTGCTGCAGGGAGCTCAAAATGGAGGACGCGGCGCTCGGGAGAGCGGGCGGGTGAGTCACCCACACAAAGGAAAAGGGCCTTTCCGTCCTCAGCCGTCGCTTCATGTGACTCCACGGAGTACCGGGCGCCGTCCAGGCACCTCGATTAGTTCTCGAGCTTTTGGAGTACGTCGTCTTTAGGTTGGGGGGAGGGGTTTTATGCGATGGAGTTTCCCCACACTGAGTGGGTGGAGACTGAAGTTAGGCCAGCTTGGCACTTGATGTAATTCTCCTTGGAATTTGCCCTTTTTGAGTTTGGATCTTGGTTCATTCTCAAGCCTCAGACAGTGGTTCAAAGTTTTTTTCTTCCATTTCAGGTGTCGTGACATCATTTT
modifications: EF-1a
notes: HDR template with EF1a promoter driving GFP, 500 bp homology arms, for AAVS1

Tested on: AAVS1
Assay: GFP insertion efficiency at AAVS1 in Jurkat cells by flow cytometry
Type: cell-based, human
Conditions: day 14 post-transfection, 500 bp homology arms, 0.5 μg μL^−1 HDR template

Stable GFP expression (insertion efficiency at AAVS1), up to 30%:
CAG: HDR template with CAG promoter driving GFP, 500 bp homology arms, for AAVS1
B1
B2
B3
